Reference: patent US20160129030A1, “TREATMENT OF MTOR HYPERACTIVE RELATED DISEASES AND DISORDERS” (priority 2013, published 2016)
Structures can show the parent of a compound that is named as a salt.

Tested on: 621-101 cells
Method: Candidate compounds were screened for cytotoxic or anti-proliferative activity in cells lacking TSC2.
The screen is being performed in 621-101 cells (which are derived from an angiomyolipoma (AML) of a patient with LAM and have a bi-allelic TSC2 inactivating mutation). The 621-101 cells are plated at 1250 cells/well in 384-well plates and grown overnight. Compound libraries are then added at the ICCB and allowed to incubate for 48-72 h. […] Treatment with staurosporine (1-2 uM) represents a positive control for cell death.
The inventors screened the Known Bioactives Collection at the ICCB which consists of approximately 7,000 compounds.

## CN1CCC[C@@H]1CCO[C@](C)(c1ccccc1)c1ccc(Cl)cc1 [clemastine fumarate]
  cytotoxic or antiproliferative activity: cytotoxic or antiproliferative activity in the absence of rapamycin
mTOR pathway active vs. rapamycin pretreatment
  effectiveness depending on mTOR pathway activity: only effective when the mTOR pathway is active
